# PubChem BioAssay AID504444 (National Center for Advancing Translational Sciences (NCATS), 2011)
# About 7,500 (2.1%) of roughly 360,000 compounds were called active. The inconclusive results got no clear call from the source; some entries with a clear call stand among them for comparison. Calls come from the whole dose curve; as a rule, active = well fitted inhibition curve with a large enough effect; inconclusive = small, poorly fitted or top-dose-only effect, or effect the other way; inactive = flat fitted curve, though single readings scatter. Potencies beside an inconclusive call are fits to weak or partial responses and may not hold up.
# Test: Nrf2 qHTS screen for inhibitors; note: nearly all actives have a fitted effect of over 60% in size
# Conditions: A549 ARE-Fluc reporter, luciferase luminescence, 18-24 h; activity change, negative = inhibition: at 46 µM (top of the series)
# In short: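 In this cell-based qHTS, ARE-driven firefly luciferase in A549 cells reports Nrf2 activity; the luminescent signal after BugLite lysis is the measured value, with a prior CellTiter-Fluor read for cell health.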
# % is set by controls: 0 for no effect and ±100 for the full control effect; potency is the fitted concentration of half-maximal effect.
SMILES,Potency,"activity change, negative = inhibition"
O=[N+]([O-])c1ccc(Nc2nc(N/N=C/c3cccc(F)c3)nc(N3CCCC3)n2)cc1,"inconclusive: 9.2 µM [falling, partial curve]",
CCC(Oc1nc2ccccc2nc1-c1ccccc1NC(C)=O)C(=O)c1ccccc1 (stereo not drawn),"inconclusive: 11.6 µM [falling, partial curve, poor fit]",
COc1cc(NC(=O)Nc2ccc3c(c2)OCO3)cc(OC)c1OC,,inactive: 7.21%
CCn1c2ccccc2c2nnc(SC3CCOC3=O)nc21 (stereo not drawn),"inconclusive: 2.91 µM [activator, full curve]",
Cc1ccc(NC(=O)c2cccc3c(=O)c4c([nH]c23)CCCC4)c(C)c1,"inconclusive: 6.51 µM [activator, partial curve]",
CCOC(=O)c1sc2nc(NC(=O)C(C)(C)C)sc2c1C,"inconclusive: 0.731 µM [activator, full curve]",
CCN(CC)S(=O)(=O)c1cccc(-c2nnc(SCCCC(=O)c3ccccc3)o2)c1,"inconclusive: 25.9 µM [falling, partial curve, poor fit]",
O=C(C1CCCN(S(=O)(=O)c2ccccc2[N+](=O)[O-])C1)N1CCN(c2ccccc2)CC1 (stereo not drawn),"inconclusive: 32.6 µM [falling, partial curve, poor fit]",
CC(=O)c1cccc(NC(=O)c2nc(-c3ccccc3)oc2C)c1,"inconclusive: 20.6 µM [falling, partial curve, poor fit]",
Cc1cc(O)c(CN2CCN(S(=O)(=O)c3cccs3)CC2)cc1C(C)C,"inconclusive: 32.6 µM [falling, single point]",
CNC(=O)c1ccc(-c2ccc(Cl)c(Cl)c2)s1,"inconclusive: 14.6 µM [activator, partial curve]",
O=C(COc1ccc([N+](=O)[O-])cc1)Nc1nc(-c2ccccn2)cs1,"inconclusive: 18.4 µM [falling, partial curve]",
COc1ccc(NCc2cc3cc(OC)ccc3[nH]c2=O)cc1,,inactive: -27.8%
O=S(=O)(c1ccccc1)c1nc(-c2ccccc2)oc1N1CCOCC1,"inconclusive: 6.51 µM [falling, partial curve, poor fit]",
O=C(Nc1cccc(C(=O)O)c1)Nc1ccc2c(c1)OCO2,"inconclusive: 4.11 µM [activator, single point]",
COc1cc(Cl)c(C)cc1NC(=O)CCc1c(C)nc2c3cccnc3nn2c1C,,inactive: 10.9%
c1ccc(-c2nc(-c3cccs3)[nH]c2-c2ccccc2)cc1,,inactive: -25.5%
C#CCOCCOCCOCCNc1nc(N2CCN(C(=O)[C@H](C(C)C)n3cc(CCO)nn3)CC2)nc(N2CCN(C(=O)[C@H](CCCCN)n3cc(CCCC)nn3)CC2)n1,,inactive: 5.6%
Cc1ccc2nc(Cl)c3cc(C(=O)NCCCN4CCCC4)sc3c2c1,"inconclusive: 1.84 µM [activator, full curve]",
O=C(Nc1nc2n(n1)C(c1ccccc1)C=C(c1ccccc1)N2)c1ccccc1 (stereo not drawn),"inconclusive: 11.6 µM [falling, partial curve, poor fit]",
COc1cccc(-c2cc(C(=O)NCCCN3CCOCC3)no2)c1,"inconclusive: 16.4 µM [falling, single point]",

# Random excerpt: 2 compounds from above
SMILES,Potency,"activity change, negative = inhibition"
Cc1cc(O)c(CN2CCN(S(=O)(=O)c3cccs3)CC2)cc1C(C)C,"inconclusive: 32.6 µM [falling, single point]",
CNC(=O)c1ccc(-c2ccc(Cl)c(Cl)c2)s1,"inconclusive: 14.6 µM [activator, partial curve]",

# Next part

SMILES,Potency,"activity change, negative = inhibition"
Cc1ccccc1CSCC(=O)NC(=O)NC(C)(C)C,"inconclusive: 29.1 µM [falling, single point]",
O=C(Nc1cc(F)c(Br)cc1F)c1ccc(Cl)cc1,"inconclusive: 8.2 µM [activator, partial curve]",
COc1ccc(NC(=O)c2nnn(CC(=O)Nc3c(C)cc(C)cc3C)c2N)cc1OC,"inconclusive: 29.1 µM [activator, single point]",
C=C(C)CN(CC)C(=O)CSc1ccc(S(=O)(=O)N2CCN(Cc3ccccc3)CC2)cn1,"inconclusive: 5.17 µM [falling, full curve]",
COc1ccc(CNC(=O)CN(C(=O)c2ccc(CN3CCOCC3)o2)C2CCCC2)cc1,"inconclusive: 4.61 µM [activator, single point]",
COc1ccc(CCNC(=O)c2cc3c(C)nccc3[nH]c2=O)cc1OC,"inconclusive: 29.1 µM [falling, single point]",
CN(C)c1ccc(NC(=O)c2ccc3nc[nH]c3c2)cc1,"inconclusive: 2.91 µM [falling, partial curve, poor fit]",
CCc1cccc(C)c1NC(=O)c1ccc(CN2CCc3ccccc3C2)cc1,"inconclusive: 32.6 µM [falling, single point]",
O=C(Cc1ccccc1)Nc1nonc1NC(=O)c1ccccc1,"inconclusive: 20.6 µM [falling, single point]",
Cc1ccc(OCCCCn2cnc3ccccc32)cc1,"inconclusive: 29.1 µM [falling, single point]",
COC(=O)C1=CN(c2cccc(Cl)c2)C=C(C(=O)OC)C1c1cccc(OC)c1,"inconclusive: 32.6 µM [falling, partial curve, poor fit]",
Cc1ccccc1NS(=O)(=O)c1cc(C(=O)NCCC2=CCCCC2)ccc1Cl,"inconclusive: 29.1 µM [falling, single point]",
COc1ccc(C)cc1NC(=O)COC(C)=O,"inconclusive: 2.91 µM [falling, partial curve, poor fit]",
CCCOc1ccc(C(=O)Nc2nonc2-c2ccc(OCC)cc2)cc1,,inactive: -17.4%
CCC(C)(C)NC(=O)C1CCCN(S(=O)(=O)c2ccc3c(c2)CC(C)N3C(=O)C2CC2)C1 (stereo not drawn),"inconclusive: 14.6 µM [falling, partial curve, poor fit]",
CN(C)c1nc(OCCOC(=O)Nc2ccc(Cl)cc2Cl)nc(N(C)C)n1,"inconclusive: 23.1 µM [falling, partial curve, poor fit]",
Cc1cccc(N(C(=O)Nc2ccccc2)C2=NCC(C)S2)c1 (stereo not drawn),,inactive: 29.6%
CCOC(=O)CNC(=O)CCCCCC(=O)NCC(=O)OCC,"inconclusive: 29.1 µM [activator, single point]",
COc1ccc(CNC(=O)C2=C(C)C(=O)OC23CCCCC3)cc1OC,"inconclusive: 29.1 µM [activator, single point]",
O=C(c1ccc(F)cc1F)N1CCC(c2nc(-c3ccc(S(=O)(=O)N4CCCC4)cc3)no2)CC1,,inactive: 2.65%
N#CC1=C2N=C(N)c3ccccc3N2C2=C(C(=O)CCC2)C1c1ccc(Cl)cc1 (stereo not drawn),"inconclusive: 8.2 µM [falling, partial curve]",

SMILES,Potency,"activity change, negative = inhibition"
Cc1cc(N2C(=O)C(O)=C(C(=O)c3ccco3)C2c2ccc([N+](=O)[O-])cc2)no1 (stereo not drawn),,inactive: 3.13%
COc1ccc(C2C(C(C)=O)=C(O)C(=O)N2c2ccccn2)cc1 (stereo not drawn),"inconclusive: 1.16 µM [activator, full curve]",
COc1ccccc1CCNC(=O)C(=O)NCCC1CCCCN1S(=O)(=O)c1ccccc1 (stereo not drawn),"inconclusive: 2.91 µM [falling, full curve, poor fit]",
C=CCOc1ccccc1CNc1ccc2c(c1)OCCO2,"inconclusive: 1.3 µM [activator, full curve, poor fit]",
COC(=O)[C@@]12CCCCN1[C@H](c1ccc(-c3ccccc3)cc1)[C@@H]1C(=O)N(C)C(=O)[C@@H]12,"inconclusive: 29.1 µM [falling, single point]",
Cn1c(=O)c(=O)n(C)c2cc(N3CCCCC3)c(NS(=O)(=O)c3ccc(Br)cc3)cc21,"inconclusive: 13 µM [falling, partial curve, poor fit]",
C/C=C/Cn1c(N2CCCCCC2)nc2c1c(=O)[nH]c(=O)n2C,"inconclusive: 20.6 µM [falling, single point]",
O=[N+]([O-])c1ccccc1C=NN1CCCCCC1,"inconclusive: 20.6 µM [activator, single point]",
CC(=O)N1CCC(=NNc2nc3ccccc3s2)CC1,"inconclusive: 20.6 µM [activator, partial curve]",
COC(=O)c1sccc1NC(=O)c1ccc(C)cc1,"inconclusive: 2.59 µM [activator, full curve]",
CCOc1ccc(-c2cc(NC(=O)c3cccc(Cl)c3)c(C(=O)OC)s2)cc1,,inactive: 14.8%
Cc1c(-c2ccccc2)[nH]n2c(=O)c3c(nc12)CCCC3,"inconclusive: 10.3 µM [activator, partial curve]",
COc1cc(O)c(CC=C(C)C)c(O)c1C(=O)CCc1ccc(O)cc1,active: 25.9 µM,
CSc1nccc(-c2c(-c3ccc(Cl)cc3)noc2C)n1,,inactive: -4.66%
CC[C@]12c3[nH]c4cc(CCC(=O)N(C)C)ccc4c3CCN1C(=O)[C@@H](CC(=O)NCC13CC4CC(CC(C4)C1)C3)C[C@@H]2C(=O)N1CCN(C(=O)C2CC2)CC1,,inactive: -6.58%
O=C(NC1CCCCC1)C(c1ccccc1)N(Cc1ccc2c(c1)OCO2)C(=O)c1cnsn1 (stereo not drawn),"inconclusive: 25.9 µM [falling, partial curve, poor fit]",
CC(C)N(C)C(=O)CCc1nnc(CCc2c[nH]c3ccccc23)o1,"inconclusive: 7.31 µM [activator, partial curve, poor fit]",
Cc1ccc(-c2nc3ccccc3o2)cc1NC(=S)NC(=O)c1cccs1,"inconclusive: 2.06 µM [activator, partial curve, poor fit]",
COc1cnn(-c2ccccc2)c(=O)c1SCc1ccc(Cl)cc1Cl,"inconclusive: 8.2 µM [falling, partial curve]",
N#Cc1nc(N)nc(N(c2ccccc2)c2ccccc2)n1,"inconclusive: 25.9 µM [falling, single point]",
COc1ccc(-n2nc3cc(C)c(N)c(Br)c3n2)cc1,"inconclusive: 2.06 µM [activator, full curve]",
